From patent US20060105458A1, “Caged tetracycline (derivatives), their generation, and their use for photoactivated gene expression” (priority 2002, published 2006)
For at least one compound, name, drawing or mass did not settle the structure.

System: tet-dependent GFP construct in organotypic hippocampal Müller cultures
Assay: Photoactivation of organotypic hippocampal Müller cultures (tet-dependent GFP transgene)
Type: cell-based, rat or mouse
Conditions: saturating concentration 2 μM, incubation overnight, no caging
Method: FIG. 5 depicts a modified assay to test photoactivation in tissues, exemplified again by the use of organotypic hippocampal Müller cultures. […] To determine the maximal level of GFP expression that is possible with this approach, unmodified doxycycline was added in saturating concentrations (2 μM). […] The bright-field image on the right allows normal visualization of the culture (FIG. 5b).
FIG. 6: In a new set of experiments, photoactivation was done by using thin optical fibers (200 μm) for irradiation with the UV light coming from a Xenon arc lamp. The UV beam could be positioned with the help of a recording electrode that was aligned to be in the center of the circular irradiation area. About half of the culture was irradiated with this arrangement. The position of the electrode is indicated by the red dot. The culture was incubated with 1.5 μM caged doxycycline one hour prior to irradiation. Cultures were irradiated three times for 2 min with an interval of 1 hour. […] FIG. 6b indicates the electrode position relative to the whole culture.

C[C@H]1c2cccc(O)c2C(=O)C2=C(O)[C@]3(O)C(=O)C(C(N)=O)=C(O)[C@@H](N(C)C)[C@@H]3[C@@H](O)[C@@H]21 [doxycycline, reference compound] was tested, and the “GFP expression (maximal level)” value was “strong GFP expression”.
